# Measurements as given in patent US20130296242A1, “MEDICATION AND THERAPY TREATING OF CHOROIDAL NEOVASCULARIZATION” (NATIONAL SUN YAT-SEN UNIVERSITY, priority 2012, published 2013).
# Not every detail of the peptide structures is certain; ends, links or a residue may be inferred. No end group written: not given here.
# Legend:
# [1] = tested on: choroidal neovascularization in Norway brown rats; experiment: Trial (C): inhibition of choroidal neovascularization induced by laser photocoagulation; assay type: in vivo; details: 1 μg/ml eye drops, 50 μl three times a day for twenty days, versus saline group C1
# [2] = tested on: corneal angiogenesis in Norway brown rats; experiment: Trial (D): inhibition of bFGF-induced angiogenesis on surface of eyes; assay type: in vivo; details: 1 μg/ml eye drops, 50 μl three times a day for fourteen days; FIG. 5
# [3] = tested on: human umbilical vein endothelial cell line (HUVEC); experiment: Trial (E): binding rate to cells, detected by anti-His tagged protein antibody; details: 1-10000 ng/ml; control set up as 100%; FIG. 6
# [4] = tested on: vascular endothelial cells; experiment: Trial (F): vascular endothelial cell migration in boyden chamber, induced by bFGF; assay type: cell-based; details: 100 ng/ml, 24 hours; FIGS. 8 and 9
# [5] = tested on: vascular endothelial cells; experiment: Trial (F): tubular formation of vascular endothelial cells; assay type: cell-based; details: 100 ng/ml, 48 hours; FIGS. 10 and 11
# [6] = tested on: aorta obtained from a Norway brown rat; experiment: Trial (G): angiogenesis from rat aorta pieces cultured in collagen/DMEM; details: 100 ng/ml, five days; saline group G1 set up as 100%; FIGS. 12 and 13
sequence,measurement,setting,value
GPDICGPGTKKVHVIFNYKGKNVLINKDIRCKDDEFTHLYTLIVRPDN (cysteines drawn unpaired) [VS48],tissues in retina,[1],intact
same,area of choroidal neovascularization,[1]; FIGS. 3 and 4,significant smaller
same,area of corneal hyperplasia induced by angiogenic factors,[2],dramatically reducing area
same,binding rate with HUVEC,[3],increased by the concentration of the VS48
same,inhibition of vascular endothelial cell migration,[4],great inhibiting ability
same,tubular formation in vascular endothelial cells,[5],reduce the tubular formation
same,inhibition of angiogenesis around arterial circle (growing rate),[6],effectively inhibit the angiogenosis
